# Assay results published in patent publication US20030153951A1, “Methods and devices for treating arrhythmias using defibrillation shocks” (priority 2002, published 2003).
# Tested on: ventricular fibrillation
# Experiment: Defibrillation threshold (3-reversal up/down protocol) after electrically induced ventricular fibrillation in anesthetized pigs
# Format: in vivo
# Conditions: control, drug, washout, vehicle groups
# Description: Six healthy pigs (30-35 kg) of either sex were anesthetized, monitored, and maintained under physiologic conditions. See, Chattipakorn et al. (2000). Two catheter-mounted platinum coated titanium coil electrodes were used as defibrillating electrodes. A 34-mm catheter was inserted into the right ventricular (RV) apex and served as the cathode for the first phase of the biphasic shock. […] The position of the catheters was verified with fluoroscopy. The blood pressure and heart rate were monitored continuously throughout the entire study.
# Ventricular fibrillation was induced by 60-Hz alternating current delivered via an electrode at the tip of the RV catheter. […] Delivered voltage and current were recorded on a waveform analyzer and total delivered energy was calculated. […]
# The defibrillation threshold was determined 4 times during 4 different conditions in this study. The defibrillation threshold in each group was determined using a 3-reversal up/down protocol. See Chattipakorn et al. The first defibrillation threshold was determined at the beginning of the study. […] The second defibrillation threshold (drug-DFT) was determined 15 minutes after the application of Flunarizine. After the drug-DFT was obtained, the administration of Flunarizine was terminated while the blood pressure and heart rate were monitored. […]
smiles,measurement,value
Fc1ccc(C(c2ccc(F)cc2)N2CCN(C/C=C/c3ccccc3)CC2)cc1 [Flunarizine],change in current among the four defibrillation threshold groups,no significant changes
same,change in impedance among the four defibrillation threshold groups,no significant changes
